In the experiment the target is T1, GST-tagged ROR gamma ligand binding domain (LBD) (Homo sapiens, UniProt P51449).
T1 construct: purchased Invitrogen
T1 sequence (P51449 269-508 limits assumed): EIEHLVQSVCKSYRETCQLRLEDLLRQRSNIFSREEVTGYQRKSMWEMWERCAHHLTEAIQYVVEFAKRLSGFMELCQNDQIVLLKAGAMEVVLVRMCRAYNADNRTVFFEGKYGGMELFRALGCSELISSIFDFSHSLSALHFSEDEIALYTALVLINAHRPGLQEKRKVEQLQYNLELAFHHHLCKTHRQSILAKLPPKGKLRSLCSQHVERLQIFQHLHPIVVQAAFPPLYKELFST
The experiment is described as follows: TR-FRET assay for ROR gamma (Lantha Screen, co-activator peptide recruitment). As to conditions: for inhibition at 1 µM: read-out: % inhibition at 1 μM; for inhibition at 10 µM: read-out: % inhibition at 10 μM. It is filed as biochemical.

Bounds are passed on as bounds.

Usually IC50 stands for the concentration needed to halve the response being measured. Read a low IC50 as greater potency. For orientation: inhibition means how much of the control response was suppressed. Take `O=C(O)c1ccc(-n2cc(C(=O)c3c(Cl)cccc3Cl)c3ccccc32)c(F)c1` [Example 19, 4-{3-[(2,6-Dichlorophenyl)carbonyl]-1H-indol-1-yl}-3-fluorobenzoic acid]: the IC50 is less than 50 nM, the inhibition at 1 µM turned out to be 94.5% and the inhibition at 10 µM is 94.9%.

For `O=C(O)c1ccc(-n2cc(C(=O)c3c(Cl)cccc3Cl)c3cccc(F)c32)c(F)c1` [Example 25, 4-[3-(2,6-Dichlorobenzoyl)-7-fluoro-1H-indol-1-yl]-3-fluorobenzoic acid], the inhibition at 1 µM amounted to 96.3% and the inhibition at 10 µM came to 94.2%.

(Values after patent US9682977B2, “Bicyclic heteroaryl indole analogues useful as ROR gamma modulators” (Glenmark Pharmaceuticals S.A., priority 2013, dated 2017).)
